Results from patent US20160343958A1, “ORGANIC TRANSISTOR, COMPOUND, ORGANIC SEMICONDUCTOR MATERIAL FOR NON-LIGHT-EMITTING ORGANIC SEMICONDUCTOR DEVICE, MATERIAL FOR ORGANIC TRANSISTOR, COATING SOLUTION FOR NON-LIGHT-EMITTING ORGANIC SEMICONDUCTOR DEVICE, AND ORGANIC SEMICONDUCTOR FILM FOR NON-LIGHT-EMITTING ORGANIC SEMICONDUCTOR DEVICE” (FUJIFILM Corporation, priority 2014, published 2016).
Some entries share one result that the patent states for a list of compounds.

Assay: Solubility in toluene
Type: physicochemical
Details: heated to 100° C., left 30 minutes at room temperature, result in words
Method: Each of the compounds of the present invention or comparative compounds (2% by mass, 1% by mass, 0.5% by mass, or 0.1% by mass each) was mixed with toluene (1 mL), heated to 100° C., and then left to stand for 30 minutes at room temperature. […] For practical use, the compound needs to be evaluated to be A, B, C, or D. The compound preferably needs to be evaluated to be A, B, or C, more preferably needs to be evaluated to be A or B, and particularly preferably needs to be evaluated to be A.
E: Precipitation occurred at 0.1% by mass.

Compound	solubility in an organic solvent
c1ccc(-c2cccc(-c3ccc4sc5c(ccc6c7cc(-c8cccc(-c9ccccc9)c8)ccc7sc65)c4c3)c2)cc1 [compound 3, reference compound]	poor solubility
c1ccc2c(c1)sc1c2ccc2c3cccc(-c4ccc5c6ccccc6c6ccccc6c5c4)c3sc21 [comparative compound 6, reference compound]	poor solubility
